Patent US20140066324A1, “GENE EXPRESSION SIGNATURE IN SKIN PREDICTS RESPONSE TO MYCOPHENOLATE MOFETIL” (NORTHWESTERN UNIVERSITY, priority 2011, published 2014)

System: adult human dermal fibroblasts
Assay: Cytokine gene expression signatures in cultured adult human dermal fibroblasts
Type: cell-based

Substance	overlap of inducible genes between IL-13 and IL-4	number of genes of the gene signature
IL-4: pro-fibrotic cytokine IL-4 (NM_000589)	approximately 60%	–
IL-13: pro-fibrotic cytokine IL-13 (NM_002188)	approximately 60%	490
